# Data: PubChem BioAssay (EPA / NIEHS)
# Protein sequences, listed by entry. Tags and fused reporters are not part of them.
# UniProt P04637, whole entry, looked up: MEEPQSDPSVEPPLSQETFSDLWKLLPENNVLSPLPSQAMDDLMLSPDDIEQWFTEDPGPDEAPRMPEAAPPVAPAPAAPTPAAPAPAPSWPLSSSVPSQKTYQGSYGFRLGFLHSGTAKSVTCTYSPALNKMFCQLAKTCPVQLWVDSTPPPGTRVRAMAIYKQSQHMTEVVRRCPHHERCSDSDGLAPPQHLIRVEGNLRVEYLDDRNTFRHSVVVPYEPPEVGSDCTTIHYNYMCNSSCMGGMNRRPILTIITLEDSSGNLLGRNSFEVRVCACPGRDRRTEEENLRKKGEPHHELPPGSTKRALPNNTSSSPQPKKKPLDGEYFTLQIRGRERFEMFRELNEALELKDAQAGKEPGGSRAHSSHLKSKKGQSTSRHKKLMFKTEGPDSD
# Several values for one entry are separate records, joined by “and”; a condition that tells them apart may be missing. Identical values can stand only once. Inconclusive results, whose numbers are uncertain, are shown with a selection of clear calls. Where the call is inconclusive, the potency comes from a doubtful curve fit. Activity calls are given as the source filed them. Rule for the calls: active = hit-call score of the fitted dose curve at least 0.9, where 1 is the maximum; inconclusive = response in the unintended direction; inactive = score below 0.9.
# Test system: not listed separately
# Experiment: TOX21_p53_BLA_p5_viability: Viability Assessment in the Tox21 HCT-116 p53 Agonism Beta-lactamase Assay, Phase 5 (AID 2283600)
# Outline: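 Viability came from CellTiter-Glo ATP luminescence, read after 30 min at room temperature. Before this, HCT-116 p53-bla cells (4000/well) had 16 hours of compound exposure at 37C, with DMSO stocks diluted 217-fold on transfer.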
Compound,AC50,outcome
COC(=O)[C@@H](N)CCCN/C(N)=N/[N+](=O)[O-],inconclusive: 23 µM,
CCC(COC(=O)c1cc(OC)c(OC)c(OC)c1)(c1ccccc1)N(C)C (centres undefined),,inactive
CC[N+](C)(CC)CCOC(=O)C(O)(c1ccccc1)c1ccccc1,,inactive
CN(C)CCc1c[nH]c2cccc(OP(=O)(O)O)c12,,inactive
CC(Cl)Cl,inconclusive: 44.4 µM,
ClC(Cl)(Cl)Cl,inconclusive: 45.4 µM and inconclusive: 23 µM,
COC(=O)c1cncn1C(C)c1ccccc1 (centres undefined),inconclusive: 23 µM,
C[C@]12CC[C@@H]3c4ccc(OC(=O)N(CCCl)CCCl)cc4CC[C@H]3[C@@H]1CC[C@@H]2O,inconclusive: 23 µM,
CC(Cc1ccccc1)NCCn1cnc2c1c(=O)n(C)c(=O)n2C (centres undefined),,inactive
ClC=C(Cl)Cl,inconclusive: 1.07 µM and inconclusive: 23 µM,
C[C@]12N[C@H](Cc3ccccc31)c1ccccc12,inconclusive: 6.56 µM,inactive
CCCOC(=O)Cc1ccc(OCC(=O)N(CC)CC)c(OC)c1,inconclusive: 6.25 µM,
C=C1CC[C@@]2(O)[C@H]3Cc4ccc(O)c5c4[C@@]2(CCN3CC2CC2)[C@H]1O5,inconclusive: 6.44 µM,
O=Cc1ccccc1,,inactive
NC1=NC(=O)C(c2ccccc2)O1 (centres undefined),,inactive
CN1CCC(O)(c2ccc(F)cc2)C(C(=O)c2ccc(F)cc2)C1 (centres undefined),inconclusive: 23 µM,
O=[N+]([O-])c1ccc2ccc3cccc4ccc1c2c34,,inactive
C[C@]12Cc3nonc3C[C@@H]1CC[C@@H]1[C@@H]2CC[C@@]2(C)[C@H]1CC[C@]2(C)O,,inactive

# Target: Cellular tumor antigen p53 (Homo sapiens) (UniProt P04637)
# Experiment: TOX21_p53_BLA_p4_ratio: Tox21 HCT-116 p53 Agonism Beta-lactamase Assay, Ratio, Phase 4 (AID 2283601)
# Outline: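 HCT-116 p53 beta-lactamase reporter cells (4000/well) preincubated 5 h, then compound (217-fold dilution of DMSO stock) for 16 h at 37C. CCF4-AM substrate added 2 h at room temperature; 460/530 nm emission ratio fitted upward versus DMSO.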
Compound,AC50,outcome
CCC(=O)OC1(c2ccccc2)CCN(C)CC1,inconclusive: 52.9 µM,
CCN1C[C@]2(COC)[C@H](O)C[C@H](OC)[C@@]34[C@@H]5C[C@@]6(O)[C@H](OC(=O)c7ccccc7)[C@@H]5[C@@](OC(C)=O)([C@@H]([C@H](OC)[C@H]23)[C@@H]14)[C@@H](O)[C@@H]6OC,,inactive
ClC(Cl)(Cl)Cl,,inactive
Cc1coc2c1CCC(C)C2 (centres undefined),inconclusive: 47.4 µM,
CC[C@@H](CO)NC(=O)[C@@H]1C=C2c3cccc4[nH]cc(c34)C[C@H]2N(C)C1,,inactive
COC(=O)c1cncn1C(C)c1ccccc1 (centres undefined),inconclusive: 37 µM,
C[C@]12CC[C@@H]3c4ccc(OC(=O)N(CCCl)CCCl)cc4CC[C@H]3[C@@H]1CC[C@@H]2O,active: 31.9 µM,
ClC=C(Cl)Cl,,inactive
O=[N+]([O-])c1cccc(O)c1,inconclusive: 46.2 µM,
CCCCc1c(C)nc(NCC)[nH]c1=O,inconclusive: 46.1 µM,
O=Cc1ccccc1,,inactive
CN1CCC(O)(c2ccc(F)cc2)C(C(=O)c2ccc(F)cc2)C1 (centres undefined),inconclusive: 43.4 µM,
CNC(C)Cc1ccccc1OC (centres undefined),inconclusive: 34.9 µM,
ClCc1ccc(Cl)cc1Cl,inconclusive: 46.1 µM,
COC(C)(C)CCCC(C)C/C=C/C(C)=C/C(=O)OC(C)C (centres undefined),inconclusive: 45.5 µM,
